Source: paper PMC3968008 (PLoS ONE, 2014)
Converted amounts (≈) assume the structure as drawn.

Tested on: P. aeruginosa (ATCC27853)
Experiment: MIC, broth microdilution
Type: cell-based
Settings: Pseudomonas aeruginosa, 37°C, 24 or 48 hours, individual data from two independent experiments

MIC: 0.25 to 1 µg/mL (≈ 0.535 to 2.14 µM)
Structure (SMILES): NC[C@H]1O[C@H](O[C@H]2[C@H](O)[C@@H](O[C@H]3O[C@H](CO)[C@@H](O)[C@H](N)[C@H]3O)[C@H](N)C[C@@H]2N)[C@H](N)C[C@@H]1O [Tobramycin]
